Patent publication US9526785B2, “Pharmaceuticals for oral delivery” (Enteris BioPharma, Inc., priority 2013, dated 2016)
Several values for one entry are separate records, joined by “and”; a condition that tells them apart may be missing. Equal entries are not always repeated. This continues a long series; more values of the same kind are listed elsewhere.

Assay: Tigecycline plasma PK and % F after PO enteric-coated capsule in dogs
Type: in vivo, Beagle dogs
Details: SC430, individual dogs
Procedure: Adult beagle dogs weighing approximately 9 to 15 kg were used in the study. […] Room temperature was set to be maintained between approximately 20±5° C. Relative humidity was monitored but not controlled.
TEKLAD™ Certified Canine Diet was provided once daily in amounts (˜400 grams) appropriate for the size and age of the animals. Tap water was available ad libitum via automatic watering device or water bowls.
Oral dosing of enteric-coated capsules was accomplished by administering them to the back of the dog's mouth, followed by a chase of 5 mL water to ensure swallowing.
Water was provided ad libitum. […] Subsequently, each group of animals was dosed based on the protocol, i.e. either IV, or PO by capsule.
Minocycline (VWR international) was used as an internal standard. Sample processing/clean-up of plasma samples was carried out offline by protein precipitation with acidified acetonitrile using 0.5% trifluoroacetic acid (TFA).
The HPLC system consisted of Shimadzu SIL-HTc HPLC system equipped with dual Shimadzu LC-10ADvp isopumps, a Shimadzu CTO-10ASvp column temperature controller and a Shimadzu SPD-10Avp variable wavelength detector. […] Mobile phase A consisted of 23 mM phosphate buffer pH 2.5 with 4 mM 1-octanesulfonic acid, while mobile phase B consisting of 90% acetonitrile, 10% water, with 2 mM 1-octanesulfonic acid. […] The total runtime was 18 minutes per sample. The mobile phase flow rate was 1.2 mL/min. Detection was performed using the SPD-10Avp variable wavelength detector set at 350 nm, with a sensitivity of 0.001 aufs.
The samples were then centrifuged under refrigeration at 13 k rpm for 5 minutes. The supernatant was taken and the liquid removed to dryness under nitrogen in a turbovap. The dried extract was reconstituted in 60 μL of mobile phase A and the suspension was further centrifuged at 5 k rpm for 5 minutes to pellet any insoluble matter. The resulting supernatant was then injected onto the LC.
The unknown concentration in dog plasma samples was determined by interpolation of the peak area ratios of analyte:internal standard versus the ratio of their nominal concentrations into the regression line obtained from calibration standards spiked in pooled dog plasma. No regression weighting was used for the calculations. […] The calibration curve covered the range of 0.05 μg/mL to 5 μg/mL. […]
The capsules were enterically coated using a standard preclinical protocol to 10% weight gain. Two studies were conducted.

CN(C)c1cc(NC(=O)CNC(C)(C)C)c(O)c2c1C[C@H]1C[C@H]3[C@H](N(C)C)C(O)=C(C(N)=O)C(=O)[C@@]3(O)C(O)=C1C2=O [Tigecycline]
Tigecycline Plasma Concentration (Time (min) 1.0, PO 45 mg enteric-coated capsule with 500 mg CA and 100 mg LLC): 133.63 ng/mL and 127.65 ng/mL and 0.00 ng/mL (2×) and 20.73 ng/mL
Tigecycline Plasma Concentration (Time (min) 1.3, PO 30 mg enteric-coated capsule with 500 mg CA and 100 mg LLC): 0.00 ng/mL (3×) and 182.24 ng/mL and 73.60 ng/mL
Tigecycline Plasma Concentration (Time (min) 1.3, PO 45 mg enteric-coated capsule with 500 mg CA and 100 mg LLC): 153.06 ng/mL and 78.69 ng/mL and 0.00 ng/mL (2×) and 59.87 ng/mL
Tigecycline Plasma Concentration (Time (min) 1.7, PO 30 mg enteric-coated capsule with 500 mg CA and 100 mg LLC): 91.58 ng/mL and 145.17 ng/mL and 33.81 ng/mL and 0.00 ng/mL and 47.35 ng/mL
Tigecycline Plasma Concentration (Time (min) 1.7, PO 45 mg enteric-coated capsule with 500 mg CA and 100 mg LLC): 138.33 ng/mL and 46.66 ng/mL and 0.00 ng/mL and 157.62 ng/mL and 163.14 ng/mL
Tigecycline Plasma Concentration (Time (min) 2.0, PO 30 mg enteric-coated capsule with 500 mg CA and 100 mg LLC): 66.04 ng/mL and 127.57 ng/mL and 87.39 ng/mL and 53.01 ng/mL
Tigecycline Plasma Concentration (Time (min) 2.0, PO 45 mg enteric-coated capsule with 500 mg CA and 100 mg LLC): 116.10 ng/mL and 43.10 ng/mL and 44.20 ng/mL and 149.31 ng/mL and 367.01 ng/mL
Tigecycline Plasma Concentration (Time (min) 2.3, PO 30 mg enteric-coated capsule with 500 mg CA and 100 mg LLC): 76.54 ng/mL and 118.71 ng/mL and 120.08 ng/mL and 0.00 ng/mL and 45.11 ng/mL
Tigecycline Plasma Concentration (Time (min) 2.3, PO 45 mg enteric-coated capsule with 500 mg CA and 100 mg LLC): 87.32 ng/mL and 39.82 ng/mL and 79.71 ng/mL and 114.76 ng/mL and 216.56 ng/mL
Tigecycline Plasma Concentration (Time (min) 2.7, PO 30 mg enteric-coated capsule with 500 mg CA and 100 mg LLC): 55.33 ng/mL and 107.93 ng/mL and 87.68 ng/mL and 0.00 ng/mL and 44.38 ng/mL
Tigecycline Plasma Concentration (Time (min) 2.7, PO 45 mg enteric-coated capsule with 500 mg CA and 100 mg LLC): 78.26 ng/mL and 33.22 ng/mL and 79.21 ng/mL and 102.49 ng/mL and 199.64 ng/mL
Tigecycline Plasma Concentration (Time (min) 3.0, PO 30 mg enteric-coated capsule with 500 mg CA and 100 mg LLC): 44.24 ng/mL and 96.41 ng/mL and 76.21 ng/mL and 0.00 ng/mL and 32.59 ng/mL
Tigecycline Plasma Concentration (Time (min) 3.0, PO 45 mg enteric-coated capsule with 500 mg CA and 100 mg LLC): 74.06 ng/mL and 31.63 ng/mL and 62.12 ng/mL and 98.25 ng/mL and 116.52 ng/mL
Tigecycline Plasma Concentration (Time (min) 3.3, PO 30 mg enteric-coated capsule with 500 mg CA and 100 mg LLC): 42.97 ng/mL and 87.87 ng/mL and 48.94 ng/mL and 0.00 ng/mL and 32.16 ng/mL
Tigecycline Plasma Concentration (Time (min) 3.3, PO 45 mg enteric-coated capsule with 500 mg CA and 100 mg LLC): 69.50 ng/mL and 33.98 ng/mL and 49.17 ng/mL and 63.91 ng/mL and 126.80 ng/mL
Tigecycline Plasma Concentration (Time (min) 3.7, PO 30 mg enteric-coated capsule with 500 mg CA and 100 mg LLC): 71.18 ng/mL and 50.58 ng/mL and 0.00 ng/mL
Tigecycline Plasma Concentration (Time (min) 3.7, PO 45 mg enteric-coated capsule with 500 mg CA and 100 mg LLC): 62.36 ng/mL and 33.14 ng/mL and 38.96 ng/mL and 55.89 ng/mL and 119.77 ng/mL
Tigecycline Plasma Concentration (Time (min) 4.0, PO 30 mg enteric-coated capsule with 500 mg CA and 100 mg LLC): 33.78 ng/mL and 65.95 ng/mL and 48.33 ng/mL and 0.00 ng/mL and 35.01 ng/mL
Tigecycline Plasma Concentration (Time (min) 4.0, PO 45 mg enteric-coated capsule with 500 mg CA and 100 mg LLC): 54.31 ng/mL and 21.63 ng/mL and 32.14 ng/mL and 46.68 ng/mL and 103.81 ng/mL
Tigecycline Plasma Concentration (Time (min) 4.5, PO 30 mg enteric-coated capsule with 500 mg CA and 100 mg LLC): 34.53 ng/mL and 61.09 ng/mL and 38.99 ng/mL and 0.00 ng/mL and 33.07 ng/mL
Tigecycline Plasma Concentration (Time (min) 4.5, PO 45 mg enteric-coated capsule with 500 mg CA and 100 mg LLC): 58.85 ng/mL and 16.87 ng/mL and 21.77 ng/mL and 47.61 ng/mL and 99.47 ng/mL
Tigecycline Plasma Concentration (Time (min) 5.0, PO 30 mg enteric-coated capsule with 500 mg CA and 100 mg LLC): 33.82 ng/mL and 63.28 ng/mL and 34.27 ng/mL and 0.00 ng/mL and 27.47 ng/mL
Tigecycline Plasma Concentration (Time (min) 5.0, PO 45 mg enteric-coated capsule with 500 mg CA and 100 mg LLC): 48.38 ng/mL and 20.56 ng/mL and 33.56 ng/mL and 45.61 ng/mL and 104.91 ng/mL
Tigecycline Plasma Concentration (Time (min) 5.5, PO 30 mg enteric-coated capsule with 500 mg CA and 100 mg LLC): 59.44 ng/mL and 34.85 ng/mL and 36.11 ng/mL and 21.10 ng/mL
Tigecycline Plasma Concentration (Time (min) 5.5, PO 45 mg enteric-coated capsule with 500 mg CA and 100 mg LLC): 44.74 ng/mL and 19.45 ng/mL and 21.25 ng/mL and 50.62 ng/mL and 76.57 ng/mL
Tigecycline Plasma Concentration (Time (min) 6.0, PO 30 mg enteric-coated capsule with 500 mg CA and 100 mg LLC): 0.00 ng/mL and 28.57 ng/mL and 36.53 ng/mL and 19.76 ng/mL
Tigecycline Plasma Concentration (Time (min) 6.0, PO 45 mg enteric-coated capsule with 500 mg CA and 100 mg LLC): 36.76 ng/mL and 13.66 ng/mL and 13.38 ng/mL and 34.52 ng/mL and 77.87 ng/mL
Tigecycline Plasma Concentration (Time (min) 8.0, PO 30 mg enteric-coated capsule with 500 mg CA and 100 mg LLC): 0.00 ng/mL (3×) and 18.56 ng/mL and 17.77 ng/mL
Tigecycline Plasma Concentration (Time (min) 8.0, PO 45 mg enteric-coated capsule with 500 mg CA and 100 mg LLC): 27.89 ng/mL and 10.52 ng/mL and 6.37 ng/mL and 20.09 ng/mL and 49.82 ng/mL
Tigecycline Plasma Concentration (Time (min) 10.0, PO 30 mg enteric-coated capsule with 500 mg CA and 100 mg LLC): 0.00 ng/mL (4×) and 12.91 ng/mL
Tigecycline Plasma Concentration (Time (min) 10.0, PO 45 mg enteric-coated capsule with 500 mg CA and 100 mg LLC): 22.19 ng/mL and 0.00 ng/mL and 4.77 ng/mL and 12.09 ng/mL and 44.75 ng/mL
Tigecycline Plasma Concentration (Time (min) 24.0, PO 30 mg enteric-coated capsule with 500 mg CA and 100 mg LLC): 0.00 ng/mL
Tigecycline Plasma Concentration (Time (min) 24.0, PO 45 mg enteric-coated capsule with 500 mg CA and 100 mg LLC): 0.00 ng/mL
